Laboratory results published in patent US20220047714A1.
No constants are given. Whether binding was seen depends on the method and setting. Some results given as binding are weak or reduced against the parent protein; the word gives no strength.

Protein sequences, listed by entry. Tags and fused reporters are not part of them. Residues count along the entry.
UniProt Q15116, residues 25-167: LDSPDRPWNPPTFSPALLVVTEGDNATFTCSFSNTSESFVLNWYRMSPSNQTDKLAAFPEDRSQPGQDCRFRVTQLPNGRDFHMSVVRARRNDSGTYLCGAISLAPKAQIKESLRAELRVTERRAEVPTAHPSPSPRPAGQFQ
UniProt P60568, residues 21-153: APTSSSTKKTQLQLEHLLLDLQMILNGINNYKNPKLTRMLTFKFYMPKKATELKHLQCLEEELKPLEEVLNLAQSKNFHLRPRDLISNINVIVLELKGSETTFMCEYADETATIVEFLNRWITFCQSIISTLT

How the values were obtained:
PD-1 (human) = PD-1 (human) (UniProt Q15116); assay: HTRF
[1] = molecular target: human IL-2 (biotin-labeled) (human) (UniProt P60568); assay: HTRF

binding (PD-1 (human)): binds
binding [1]: binds
B1: PD1-IL2-R06-E04 (scFv)
scFv: QVQLVQSGAEVKKPGASVKVSCKASGYTFTRYYIHWVRQAPGQGLEWMGWINAYNGDTNYAQKLQGRVTMTRDTSTSTVYMELSSLRSEDTAVYYCARDSYYYDSFDYWGQGTLVTVSSASGGGGSGGGGSGGGGSHASDIQMTQSPSSLSASVGDRVTITCRASQTITDWLAWYQQKPGKAPKLLIYGASNLQGGVPSRFSGSGSGTDFTLTISSLQPEDFATYYCQQYYSSWTFGQGTKVEIK
